According to PubChem BioAssay AID588497 (NMMLSC, 2011):
Out of some 360,000 compounds screened, about 780 (0.22%) were called active. This list was built around the results that the source calls inconclusive (neither active nor inactive); the mix of calls is not that of the screen. No stated cut-off is given here; in the data, active means inhibition above about 35% (passing the limit was not always enough); inconclusive means no clear call, values can overlap the other calls.

Each compound was assayed on Botulinum neurotoxin type F light chain protease (Clostridium botulinum) (assay: BoNT/F light chain protease inhibitors, primary screen, biochemical, flow cytometry, MLPCN library (AID 588497; further: plate controls were buffer without enzyme for full effect and enzyme alone for no effect)). Conditions: Multiplex microsphere protease cleavage assay, at 10 µM, active compounds read high.

Structure (SMILES)	inhibition
Cc1cccc(OCCNC(=O)CCc2ccccc2)c1	inconclusive: -8.6%
COc1ccc(C(=O)c2ccc(OC)cc2O)c(O)c1	inconclusive: 33%
CCN1CCN(CCC(=O)Nc2ccccc2)CC1	inconclusive: 19.2%
Cc1cc(Cl)c2oc(C(=O)NCCC3CCCCO3)c(C)c2c1 (stereo unspecified)	inconclusive: -4.9%
Cc1nc(-c2ccccn2)nc(N(C)c2ccccc2)c1Cl	inconclusive: -16.9%
CS(=O)(=O)N1CCN(C(=O)c2cc(-c3ccccc3)nc3ccccc23)CC1	inactive: 11.8%
O=C(Cc1ccccc1)N/N=C/c1ccc[nH]1	inconclusive: -41.5%
COc1ccccc1/C=N/N1C(=O)C2C3C=CC(CC3)C2C1=O (stereo unspecified)	inactive: -10%
COc1ccc(-c2nc(CN3CCC(C(=O)N4CCOCC4)CC3)c(C)o2)cc1C	inactive: -0.1%
CCN(CCCNC(=O)CCNC(=O)Cn1cnc2ccccc2c1=O)c1ccccc1	inconclusive: -3.6%
CCCNC(=S)NC1CC2CCCC(C1)N2Cc1ccc(F)cc1 (stereo unspecified)	inconclusive: -2.5%
CCc1cc(=O)oc2cc(C)c(CN3CCCC3)c(O)c12	inactive: -9.2%
Cc1nc(-c2cccs2)ccc1C(=O)O	inactive: -1.8%
N#Cc1nc(-c2ccc(Cl)cc2)oc1NCc1ccco1	inactive: 3%
C/C=C(\C)C(=O)NNC(=O)c1sc(-c2ccccc2)nc1C	inconclusive: -54.3%
Cc1cc(C)nc(Nc2ccc(Cl)cc2C)n1	inconclusive: -4%
Cc1ccc(NS(=O)(=O)c2ccc3c(c2)n(C)c(=O)n3C)cc1C	inconclusive: 32.2%
CCCn1c(SCC(=O)N2CCc3ccccc32)nnc1-c1ccco1	inconclusive: -21.2%
CCOC(=O)[C@]12CCC=C1N(CCC1=CCCCC1)C(=O)[C@H](CC(=O)N1CCSCC1)C2	inactive: 4.8%
Nc1c(C(=O)OCC2CCCO2)c2nc3ccccc3nc2n1C1CCCCC1 (stereo unspecified)	inactive: -6.2%
Cc1cc(NC(=O)Nc2ccc(Cl)c(Cl)c2)no1	inconclusive: 39%
COc1ccccc1CN(CC(=O)NCc1ccco1)C(=O)CNS(=O)(=O)c1ccc(C)cc1	inactive: -24.8%
CC(=O)NC(c1ccc(C(C)C)cc1)c1c(O)ccc2ccccc12 (stereo unspecified)	inconclusive: -43.4%
C[C@H](CO)N1C[C@H](C)[C@@H](CN(C)C(=O)NC2CCCCC2)Oc2c(NC(=O)c3ccncc3)cccc2C1=O	inactive: -0.1%
COc1ccccc1CC(=O)N1CCN(c2ccccc2)CC1	inconclusive: -27.7%
Cc1ccc(C(=O)Nc2nnc(CC(=O)N/N=C/c3ccc(O)c(O)c3)s2)cc1	inconclusive: 15.7%

A different layout for part of the listing above:
Structure (SMILES) | inhibition
Nc1c(C(=O)OCC2CCCO2)c2nc3ccccc3nc2n1C1CCCCC1 (stereo unspecified) | inactive: -6.2%
Cc1cc(NC(=O)Nc2ccc(Cl)c(Cl)c2)no1 | inconclusive: 39%
